These results are taken from patent EP3138849B1, “SALTS OF PHOSPHORUS-CONTAINING AMINOGLYCOSIDE ANTIBIOTICS” (Mathys AG Bettlach, priority 2015, dated 2017).

The test system of this data set is Bacillus subtilis (ATCC 6633). Briefly: Content of active aminoglycoside in the salt by inhibition zone test (Hemmhoftest). The data set is classed as cell-based. As to conditions: content in the isolated salt, determined by inhibition zone test with Bacillus subtilis (ATCC 6633).
Consider “Gentamicin-Dodecylphosphat-Salz [Beispiel 2]”, for which the “Gehalt an Gentamicin-Base” value is 18,5 Gew.-%. For the substance “Streptomycin-Dodecylphosphat-Salz [Beispiel 20]”, the “Gehalt an Streptomycin” value is given as 4,7 Gew.-%. With “Gentamicin-Octadodecylphosphonsäure-Salz [Beispiel 7]”, the “Gehalt an Gentamicin-Base” value is 18,2 Gew.-%. “Streptomycin-Dodecylphosphat-Salz [Beispiel 22]”: the “Gehalt an Streptomycin” value is given as 2,1 Gew.-%. Regarding “Gentamicin-Octadodecylphosphonsäure-Salz [Beispiel 6]”, the “Gehalt an Gentamicin-Base” value is 13,3 Gew.-%. Same read-out and setting: in the case of “Gentamicin-Octadecylamin-Phosphorsäure-Salz [Beispiel 10]” it was 28,6 Gew.-%. Consider “Streptomycin-Dodecylphosphat-Salz [Beispiel 21]”, for which the “Gehalt an Streptomycin” value is on record as 5,4 Gew.-%. Same read-out and setting: next, “Streptomycin-Dodecylphosphat-Salz [Beispiel 19]”: 1,9 Gew.-%. Take “Gentamicin-Dodecylphosphat-Salz [Beispiel 3]”: the “Gehalt an Gentamicin-Base” value is given as 19,4 Gew.-%. Still for that read-out and setting: in the case of “Gentamicin-Octadodecylphosphonsäure-Salz [Beispiel 8]” it was 17,7 Gew.-%.

For “Gentamicin-Octadecylamin-Phosphorsäure-Salz [Beispiel 11]”, the “Gehalt an Gentamicin-Base” value is listed as 20,5 Gew.-%. The same measure, in the same setting: next, “Gentamicin-Octadodecylphosphonsäure-Salz [Beispiel 9]”: 18,1 Gew.-%; “Gentamicin-Dodecylphosphat-Salz [Beispiel 4]”: 21,4 Gew.-%.

With “Gentamicin-Dodecylphosphat-Salz [Beispiel 5]”, the “Gehalt an Gentamicin-Base” value was 22,5 Gew.-%.
